PubChem BioAssay AID1259425, University of Nebraska Medical Center – 2018
Shown is an unselected part of about 14,000 reagents. Not given: the time to read-out.

Aim: 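Compare each knockdown with KSR1 silencing using changes in marker transcripts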 (primary screen)
Cell system: HCT116 human colon cancer cells
Reagent: siRNA pool against human genes, 50 nM siRNA
Read-out: 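mRNA of six signature genes measured together by branched-DNA assay after 50 nM siRNA pool, blank removed, divided by geometric mean of two housekeeping genes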
Reading the numbers: BNIP3L mRNA: higher = more BNIP3L transcript after knockdown; NDRG1 mRNA: higher = more NDRG1 transcript after knockdown; BNIP3 mRNA: higher = more BNIP3 transcript after knockdown; ALDOC mRNA: higher = more ALDOC transcript after knockdown; ACSL5 mRNA: higher = more ACSL5 transcript after knockdown

gene knocked down,"BNIP3L mRNA, set 1","NDRG1 mRNA, set 1","BNIP3 mRNA, set 1","ALDOC mRNA, set 1","ACSL5 mRNA, set 1"
NFAT5 (nuclear factor of activated T cells 5),0.104,0.215,0.352,0.0195,0.106
IL10 (interleukin 10),0.0646,0.119,0.198,0.0105,0.0625
BSN (bassoon presynaptic cytomatrix protein),0.094,0.328,0.306,0.0335,0.273
CDC42EP1 (CDC42 effector protein 1),0.139,0.45,0.333,0.037,0.161
AK8 (adenylate kinase 8),0.156,0.721,0.478,0.0133,0.318
ENOSF1 (enolase superfamily member 1),0.275,0.757,0.566,0.0163,0.188
APOBEC3C (apolipoprotein B mRNA editing enzyme catalytic subunit 3C),0.149,0.106,0.204,0.0316,0.174
KITLG (KIT ligand),0.103,0.0798,0.265,0.0382,0.122
SOX4 (SRY-box transcription factor 4),0.101,0.175,0.277,0.0175,0.213
COPG1 (coat protein complex I subunit gamma 1),0.191,0.233,0.278,0.036,0.226
NOA1 (nitric oxide associated 1),0.208,0.164,0.364,0.0983,0.234
BRD7 (bromodomain containing 7),0.0929,0.245,0.255,0.0121,0.169
ITGBL1 (integrin subunit beta like 1),0.0893,0.0949,0.272,0.00902,0.136
"RAB6B (RAB6B, member RAS oncogene family)",0.102,0.231,0.295,0.0401,0.19
LILRP2 (leukocyte immunoglobulin-like receptor pseudogene 2),0.0868,0.202,0.3,0.00415,0.159
TNFRSF18 (TNF receptor superfamily member 18),0.168,0.156,0.348,0.0493,0.0662
FBLN2 (fibulin 2),0.14,0.106,0.347,0.0554,0.045
ACAN (aggrecan),0.129,0.196,0.323,0.00239,0.277
DELEC1 (deleted in esophageal cancer 1),0.11,0.174,0.377,0.02,0.116
CNPY3 (canopy FGF signaling regulator 3),0.0234,0.21,0.246,0.0331,0.302
ATP5MC1 (ATP synthase membrane subunit c locus 1),0.12,0.398,0.314,0.0181,0.235
"NUDC (nuclear distribution C, dynein complex regulator)",0.113,0.245,0.207,0.0482,0.188
DUSP8 (dual specificity phosphatase 8),0.122,0.209,0.279,0.0357,0.145
HPF1 (histone PARylation factor 1),0.154,0.216,0.309,0.0583,0.199
USP15 (ubiquitin specific peptidase 15),0.0968,0.161,0.306,0.0462,0.185
RUNDC3A (RUN domain containing 3A),0.0997,0.153,0.259,0.0373,0.0703
MOBP (myelin associated oligodendrocyte basic protein),0.0834,0.173,0.224,0.0408,0.106
TSPOAP1 (TSPO associated protein 1),0.0847,0.13,0.194,0.0114,0.101
SMARCA1 (SNF2 related chromatin remodeling ATPase 1),0.168,0.212,0.374,0.0604,0.111
HSPA2 (heat shock protein family A (Hsp70) member 2),0.105,0.0538,0.301,0.00564,0.187
CA3 (carbonic anhydrase 3),0.0701,0.0949,0.221,0.0217,0.0995
GRIA4 (glutamate ionotropic receptor AMPA type subunit 4),0.0999,0.123,0.261,0.00898,0.071
GPALPP1 (GPALPP motifs containing 1),0.0912,0.154,0.391,0.0224,0.157
RBM4 (RNA binding motif protein 4),0.158,0.373,0.276,0.0573,0.178
DPYSL5 (dihydropyrimidinase like 5),0.2,0.41,0.403,0.071,0.297
PCBD2 (pterin-4 alpha-carbinolamine dehydratase 2),0.155,0.188,0.301,0.0443,0.459
KCNK10 (potassium two pore domain channel subfamily K member 10),0.151,0.378,0.285,0.0422,0.226
CLEC1A (C-type lectin domain family 1 member A),0.12,0.168,0.297,0.02,0.164
OGN (osteoglycin),0.151,0.25,0.33,0.0209,0.246
"EEFSEC (eukaryotic elongation factor, selenocysteine-tRNA specific)",0.0753,0.116,0.281,0.0196,0.188
MIEN1 (migration and invasion enhancer 1),0.272,0.346,0.268,0.128,0.46
CCL23 (C-C motif chemokine ligand 23),0.173,0.285,0.359,0.056,0.0988
SIN3A (SIN3 transcription regulator family member A),0.38,0.633,0.519,0.00932,0.109
"POLD4 (DNA polymerase delta 4, accessory subunit)",0.432,0.885,0.494,0.283,0.456
SUV39H1 (SUV39H1 histone lysine methyltransferase),0.0899,0.243,0.278,0.0268,0.135
CLXN (calaxin),0.15,0.112,0.192,0.0401,0.117
LORICRIN (loricrin cornified envelope precursor protein),0.175,0.981,0.205,0.0256,0.269
CARMIL1 (capping protein regulator and myosin 1 linker 1),0.0807,0.126,0.253,0.0387,0.13
IL10RA (interleukin 10 receptor subunit alpha),0.0853,1.3,0.185,0.0149,0.175
THADA (THADA armadillo repeat containing),0.0625,0.126,0.295,0.0168,0.19

In a second layout: 5 of the entries above
| gene knocked down | BNIP3L mRNA, set 1 | NDRG1 mRNA, set 1 | BNIP3 mRNA, set 1 | ALDOC mRNA, set 1 | ACSL5 mRNA, set 1 |
| --- | --- | --- | --- | --- | --- |
| IL10 (interleukin 10) | 0.0646 | 0.119 | 0.198 | 0.0105 | 0.0625 |
| BSN (bassoon presynaptic cytomatrix protein) | 0.094 | 0.328 | 0.306 | 0.0335 | 0.273 |
| CDC42EP1 (CDC42 effector protein 1) | 0.139 | 0.45 | 0.333 | 0.037 | 0.161 |
| AK8 (adenylate kinase 8) | 0.156 | 0.721 | 0.478 | 0.0133 | 0.318 |
| ENOSF1 (enolase superfamily member 1) | 0.275 | 0.757 | 0.566 | 0.0163 | 0.188 |
